Experimental data: publication PMC10990277
These are yes or no findings as the source states them, for the method shown. Binding seen in cells or lysates may run through a third protein. These calls come from enrichment with a bait or labelling near it, and not all partners need be listed.

Target: E-HA/TurboID^Site3 (SARS-CoV-2) (UniProt P0DTC4)
Assay: proximity labelling

B1: retention in endoplasmic reticulum sorting receptor 1 (RER1) (protein, UniProt O15258 1-196)
chain: MSEGDSVGESVHGKPSVVYRFFTRLGQIYQSWLDKSTPYTAVRWVVTLGLSFVYMIRVYLLQGWYIVTYALGIYHLNLFIAFLSPKVDPSLMEDSDDGPSLPTKQNEEFRPFIRRLPEFKFWHAATKGILVAMVCTFFDAFNVPVFWPILVMYFIMLFCITMKRQIKHMIKYRYIPFTHGKRRYRGKEDAGKAFAS
binding: binds
